Experimental data reported in article PMC10123117.
No constants are given. Whether binding was seen depends on the method and setting. In cells and extracts the contact can be indirect. Here binding means that the protein was enriched with, or labelled near, the bait; the list need not be complete. Where a sequence is shown, tags or fusion partners need not be part of it.

Protein sequences, listed by entry. Tags and fused reporters are not part of them.
UniProt Q6A4J8: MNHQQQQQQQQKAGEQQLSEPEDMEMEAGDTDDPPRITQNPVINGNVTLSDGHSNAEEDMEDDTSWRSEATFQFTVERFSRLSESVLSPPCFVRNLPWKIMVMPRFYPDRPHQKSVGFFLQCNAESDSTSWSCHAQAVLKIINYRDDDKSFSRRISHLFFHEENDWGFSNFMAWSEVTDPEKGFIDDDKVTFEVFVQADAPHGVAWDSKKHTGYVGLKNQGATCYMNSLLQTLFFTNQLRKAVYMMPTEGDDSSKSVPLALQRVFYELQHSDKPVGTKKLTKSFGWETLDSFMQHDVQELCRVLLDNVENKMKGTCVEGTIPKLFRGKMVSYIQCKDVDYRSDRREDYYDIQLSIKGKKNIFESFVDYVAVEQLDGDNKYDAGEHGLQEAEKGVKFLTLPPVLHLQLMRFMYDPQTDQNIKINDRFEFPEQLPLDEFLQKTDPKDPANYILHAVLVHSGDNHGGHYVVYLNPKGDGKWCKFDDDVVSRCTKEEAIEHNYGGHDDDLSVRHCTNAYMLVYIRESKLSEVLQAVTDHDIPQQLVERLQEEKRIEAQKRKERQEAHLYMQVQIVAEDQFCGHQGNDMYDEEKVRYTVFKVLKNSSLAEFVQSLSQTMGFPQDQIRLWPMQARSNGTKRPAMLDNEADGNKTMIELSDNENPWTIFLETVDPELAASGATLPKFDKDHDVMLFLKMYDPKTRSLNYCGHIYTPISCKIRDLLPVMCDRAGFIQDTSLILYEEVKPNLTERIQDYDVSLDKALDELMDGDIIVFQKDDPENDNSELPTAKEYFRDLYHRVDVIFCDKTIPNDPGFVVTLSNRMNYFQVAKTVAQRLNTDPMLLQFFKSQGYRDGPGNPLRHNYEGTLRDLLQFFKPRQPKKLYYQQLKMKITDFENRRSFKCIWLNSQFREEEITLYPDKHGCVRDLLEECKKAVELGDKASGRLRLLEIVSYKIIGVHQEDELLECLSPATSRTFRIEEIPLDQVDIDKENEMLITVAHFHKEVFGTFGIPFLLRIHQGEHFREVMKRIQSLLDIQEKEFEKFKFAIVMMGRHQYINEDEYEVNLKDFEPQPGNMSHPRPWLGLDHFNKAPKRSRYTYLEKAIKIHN
UniProt G5E870: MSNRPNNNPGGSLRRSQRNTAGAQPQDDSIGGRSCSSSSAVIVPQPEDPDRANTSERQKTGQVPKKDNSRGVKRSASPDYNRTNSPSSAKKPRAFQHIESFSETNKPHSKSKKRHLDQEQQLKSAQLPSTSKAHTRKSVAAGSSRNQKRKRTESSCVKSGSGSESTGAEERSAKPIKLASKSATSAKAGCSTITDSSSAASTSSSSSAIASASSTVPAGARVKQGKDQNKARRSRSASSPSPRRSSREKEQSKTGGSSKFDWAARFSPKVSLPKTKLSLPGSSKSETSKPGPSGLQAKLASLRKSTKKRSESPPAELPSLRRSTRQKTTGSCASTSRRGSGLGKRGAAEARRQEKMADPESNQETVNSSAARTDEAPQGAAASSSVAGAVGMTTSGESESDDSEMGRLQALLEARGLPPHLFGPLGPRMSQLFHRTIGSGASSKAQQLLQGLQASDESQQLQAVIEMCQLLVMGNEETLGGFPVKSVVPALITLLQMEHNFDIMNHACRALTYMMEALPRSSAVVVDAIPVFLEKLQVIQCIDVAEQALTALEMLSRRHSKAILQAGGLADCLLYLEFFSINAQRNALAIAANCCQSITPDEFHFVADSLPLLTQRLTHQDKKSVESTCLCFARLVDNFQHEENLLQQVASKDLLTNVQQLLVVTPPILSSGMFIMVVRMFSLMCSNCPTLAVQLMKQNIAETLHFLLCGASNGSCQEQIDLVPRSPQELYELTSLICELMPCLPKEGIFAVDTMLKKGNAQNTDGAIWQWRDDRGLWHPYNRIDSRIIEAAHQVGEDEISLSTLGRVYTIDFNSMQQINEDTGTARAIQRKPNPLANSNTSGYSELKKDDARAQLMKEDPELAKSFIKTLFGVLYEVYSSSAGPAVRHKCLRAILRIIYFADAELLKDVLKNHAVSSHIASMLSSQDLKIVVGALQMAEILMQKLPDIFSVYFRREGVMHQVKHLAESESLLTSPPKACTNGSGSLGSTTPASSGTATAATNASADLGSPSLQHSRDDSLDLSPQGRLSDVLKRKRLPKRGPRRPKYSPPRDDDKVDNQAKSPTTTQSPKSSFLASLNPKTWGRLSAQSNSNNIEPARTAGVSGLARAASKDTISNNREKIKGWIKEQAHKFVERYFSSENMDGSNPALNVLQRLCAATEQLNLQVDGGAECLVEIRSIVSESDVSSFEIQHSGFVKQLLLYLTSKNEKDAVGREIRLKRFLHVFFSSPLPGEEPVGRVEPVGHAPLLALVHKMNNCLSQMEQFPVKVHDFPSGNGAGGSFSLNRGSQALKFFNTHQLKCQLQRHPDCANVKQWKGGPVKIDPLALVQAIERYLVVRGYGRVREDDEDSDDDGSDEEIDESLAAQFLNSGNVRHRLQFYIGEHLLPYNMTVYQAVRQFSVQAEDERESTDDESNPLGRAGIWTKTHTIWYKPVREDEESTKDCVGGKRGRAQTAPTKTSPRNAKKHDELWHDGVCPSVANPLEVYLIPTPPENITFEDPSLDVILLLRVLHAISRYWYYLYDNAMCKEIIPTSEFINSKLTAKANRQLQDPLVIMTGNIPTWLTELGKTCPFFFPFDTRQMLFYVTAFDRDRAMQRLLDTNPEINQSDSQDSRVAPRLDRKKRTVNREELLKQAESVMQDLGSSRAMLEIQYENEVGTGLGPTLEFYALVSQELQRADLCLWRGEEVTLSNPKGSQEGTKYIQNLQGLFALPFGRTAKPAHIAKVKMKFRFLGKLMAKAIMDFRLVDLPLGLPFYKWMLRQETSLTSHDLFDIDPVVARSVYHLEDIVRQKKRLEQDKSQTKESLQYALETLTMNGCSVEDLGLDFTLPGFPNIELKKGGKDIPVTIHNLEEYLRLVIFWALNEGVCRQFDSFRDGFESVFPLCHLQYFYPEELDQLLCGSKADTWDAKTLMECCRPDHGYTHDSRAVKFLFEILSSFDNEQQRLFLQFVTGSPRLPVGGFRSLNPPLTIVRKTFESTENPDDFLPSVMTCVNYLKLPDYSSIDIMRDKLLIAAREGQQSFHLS
UniProt Q61881: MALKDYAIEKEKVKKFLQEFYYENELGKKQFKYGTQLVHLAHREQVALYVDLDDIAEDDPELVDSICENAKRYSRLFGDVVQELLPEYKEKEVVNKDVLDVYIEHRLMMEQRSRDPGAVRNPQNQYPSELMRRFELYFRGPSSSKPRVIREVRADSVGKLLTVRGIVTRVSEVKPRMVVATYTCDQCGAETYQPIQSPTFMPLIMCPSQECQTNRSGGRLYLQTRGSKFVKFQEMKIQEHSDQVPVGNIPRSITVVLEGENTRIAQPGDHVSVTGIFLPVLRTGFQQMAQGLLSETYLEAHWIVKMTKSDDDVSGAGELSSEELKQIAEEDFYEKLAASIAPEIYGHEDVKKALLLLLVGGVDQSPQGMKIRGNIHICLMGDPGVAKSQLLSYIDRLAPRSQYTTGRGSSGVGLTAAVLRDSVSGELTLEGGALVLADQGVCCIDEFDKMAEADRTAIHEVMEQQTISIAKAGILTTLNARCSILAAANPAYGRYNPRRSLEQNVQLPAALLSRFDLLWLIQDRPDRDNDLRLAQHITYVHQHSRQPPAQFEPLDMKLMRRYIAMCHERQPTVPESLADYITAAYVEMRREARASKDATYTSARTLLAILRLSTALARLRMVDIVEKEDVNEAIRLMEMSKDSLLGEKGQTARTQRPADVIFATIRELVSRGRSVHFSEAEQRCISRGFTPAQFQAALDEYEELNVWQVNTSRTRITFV
UniProt P70388: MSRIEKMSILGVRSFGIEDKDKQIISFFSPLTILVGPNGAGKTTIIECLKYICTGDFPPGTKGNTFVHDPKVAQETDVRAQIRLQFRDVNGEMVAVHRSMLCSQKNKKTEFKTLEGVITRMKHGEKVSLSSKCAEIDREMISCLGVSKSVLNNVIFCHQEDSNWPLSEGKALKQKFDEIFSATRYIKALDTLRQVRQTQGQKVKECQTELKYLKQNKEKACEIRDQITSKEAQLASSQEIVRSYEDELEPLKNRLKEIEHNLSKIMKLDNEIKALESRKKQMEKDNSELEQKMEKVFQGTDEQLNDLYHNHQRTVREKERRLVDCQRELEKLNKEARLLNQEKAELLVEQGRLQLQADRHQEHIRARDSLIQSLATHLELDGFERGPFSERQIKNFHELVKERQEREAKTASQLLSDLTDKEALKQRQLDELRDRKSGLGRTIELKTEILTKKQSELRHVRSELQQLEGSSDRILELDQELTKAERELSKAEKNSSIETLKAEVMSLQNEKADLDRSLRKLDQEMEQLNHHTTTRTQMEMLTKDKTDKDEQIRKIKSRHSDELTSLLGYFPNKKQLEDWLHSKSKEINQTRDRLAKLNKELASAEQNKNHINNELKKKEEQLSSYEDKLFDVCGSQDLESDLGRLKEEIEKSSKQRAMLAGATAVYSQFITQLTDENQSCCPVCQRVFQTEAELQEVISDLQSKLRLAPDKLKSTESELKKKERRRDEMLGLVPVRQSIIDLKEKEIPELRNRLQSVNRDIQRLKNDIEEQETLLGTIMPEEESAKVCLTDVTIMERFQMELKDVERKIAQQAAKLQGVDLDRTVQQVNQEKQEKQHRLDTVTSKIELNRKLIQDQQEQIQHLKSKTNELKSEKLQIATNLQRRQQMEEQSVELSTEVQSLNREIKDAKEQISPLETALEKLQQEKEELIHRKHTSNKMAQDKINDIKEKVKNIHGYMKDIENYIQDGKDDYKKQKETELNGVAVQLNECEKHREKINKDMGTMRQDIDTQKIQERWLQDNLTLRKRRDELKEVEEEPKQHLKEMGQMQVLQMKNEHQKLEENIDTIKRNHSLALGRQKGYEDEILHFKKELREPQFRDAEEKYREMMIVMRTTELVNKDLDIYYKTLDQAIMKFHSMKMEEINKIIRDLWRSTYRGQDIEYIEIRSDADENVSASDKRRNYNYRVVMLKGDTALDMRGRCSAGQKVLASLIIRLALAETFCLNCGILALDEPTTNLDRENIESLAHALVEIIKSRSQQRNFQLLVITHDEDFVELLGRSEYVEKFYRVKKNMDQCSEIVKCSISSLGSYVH
UniProt Q9CQJ4: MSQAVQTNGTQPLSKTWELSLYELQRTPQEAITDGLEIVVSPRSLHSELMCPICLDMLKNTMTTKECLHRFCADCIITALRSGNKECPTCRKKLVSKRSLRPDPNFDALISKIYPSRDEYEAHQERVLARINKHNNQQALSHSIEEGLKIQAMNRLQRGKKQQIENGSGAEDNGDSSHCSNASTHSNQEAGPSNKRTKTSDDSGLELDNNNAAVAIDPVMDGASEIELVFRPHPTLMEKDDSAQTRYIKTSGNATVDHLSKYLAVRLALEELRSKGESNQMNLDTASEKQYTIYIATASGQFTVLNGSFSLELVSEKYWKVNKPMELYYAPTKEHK
UniProt O35730: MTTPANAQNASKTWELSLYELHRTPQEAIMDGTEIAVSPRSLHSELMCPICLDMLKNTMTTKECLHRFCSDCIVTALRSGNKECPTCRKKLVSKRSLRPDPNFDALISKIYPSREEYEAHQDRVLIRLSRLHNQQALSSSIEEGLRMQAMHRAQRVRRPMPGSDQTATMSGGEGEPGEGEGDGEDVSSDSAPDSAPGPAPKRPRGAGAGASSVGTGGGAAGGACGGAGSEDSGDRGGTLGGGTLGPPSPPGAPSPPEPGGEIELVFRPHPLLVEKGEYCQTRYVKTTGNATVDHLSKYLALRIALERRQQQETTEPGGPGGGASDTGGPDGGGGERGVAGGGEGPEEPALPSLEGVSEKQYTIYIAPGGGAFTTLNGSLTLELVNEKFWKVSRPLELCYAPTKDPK
UniProt Q3THK7: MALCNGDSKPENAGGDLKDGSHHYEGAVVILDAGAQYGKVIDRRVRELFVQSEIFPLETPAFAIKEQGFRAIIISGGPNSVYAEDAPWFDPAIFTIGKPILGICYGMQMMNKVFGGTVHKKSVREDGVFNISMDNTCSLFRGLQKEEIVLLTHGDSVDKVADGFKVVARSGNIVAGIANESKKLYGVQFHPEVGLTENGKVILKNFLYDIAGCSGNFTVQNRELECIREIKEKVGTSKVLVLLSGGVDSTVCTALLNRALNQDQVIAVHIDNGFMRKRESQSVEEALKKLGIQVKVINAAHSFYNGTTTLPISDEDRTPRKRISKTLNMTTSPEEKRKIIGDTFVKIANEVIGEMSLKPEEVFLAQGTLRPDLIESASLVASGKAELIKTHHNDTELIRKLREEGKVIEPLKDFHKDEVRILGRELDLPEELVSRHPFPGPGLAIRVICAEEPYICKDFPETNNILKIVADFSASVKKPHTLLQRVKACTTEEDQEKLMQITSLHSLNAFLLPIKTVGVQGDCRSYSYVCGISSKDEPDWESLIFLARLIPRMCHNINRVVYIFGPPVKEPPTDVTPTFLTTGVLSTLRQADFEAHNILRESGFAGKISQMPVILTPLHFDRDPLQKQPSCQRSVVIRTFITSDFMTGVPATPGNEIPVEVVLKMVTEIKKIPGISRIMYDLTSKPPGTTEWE

Target: USP7 (mouse (endogenous in E14TG2a ES cells)) (UniProt Q6A4J8)
Experiment: affinity purification with mass spectrometry; anti-USP7 immunoprecipitation of endogenous USP7 from WT mESC lysate, Usp7-KO ES cells as control, three independent experiments; nanoLC-MS/MS, spectral counts; enriched: fold change >4 and adjusted P <0.05

Molecule | binding
TRIP12 (from UniProt G5E870 1-2025) | binds
MCM7 (from UniProt Q61881 1-719) | binds
RAD50 (from UniProt P70388 1-1312) | binds
MGA (from UniProt A2AWL7 1-3003) | binds
RING1B (from UniProt Q9CQJ4 1-336) | binds
RING1A (from UniProt O35730 1-406) | binds
PCGF1 (protein, UniProt Q8R023 1-259) MASPQGGQIAIAMRLRNQLQSVYKMDPLRNEEEVRVKIKDLNEHIVCCLCAGYFVDATTITECLHTFCKSCIVKYLQTSKYCPMCNIKIHETQPLLNLKLDRVMQDIVYKLVPGLQDSEEKRIREFYQSRGLDRVSQPSGEEPALSNLGLPFSSFDHSKAHYYRYDEQLSLCLERLSSGKDKNKNVLQNKYVRCSVRAEVRHLRRVLCHRLMLNPQHVQLLFDNEVLPDHMTMKQLWLSRWFGKPSPLLLQYSVKEKRR | binds
MCM5 (protein, UniProt P49718 1-734) MSGFDDPGIFYSDSFGGDPGAEEGQARKSQLQRRFKEFLRQYRVGTDRTGFTFKYRDELKRHYNLGEYWIEVEMEDLASFDEELADHLHKQPAEHLQLLEEAAKEVADEVTRPRPAGDELLQDIQVMLKSDASPSSIRILKSDMMSHLVKIPGIIISASAVRAKATRISIQCRSCHNTLTNIAMRPGLEGYALPRKCNMDQAGRPKCPLDPYFIMPDKCKCVDFQTLKLQELPDAVPHGEMPRHMQLYCDRYLCDKVVPGNRVTIMGIYSIKKFGLNPSKGRDRVGVGIRSSYIRVLGIQVDTDGSGRSFAGSVSPQEEEEFRRLAALPNIYELISKSISPSIFGGMDMKKAIACLLFGGSRKRLPDGLTRRGDINLLMLGDPGTAKSQLLKFVEKCSPIGVYTSGKGSSAAGLTASVIRDPSSRNFIMEGGAMVLADGGVVCIDEFDKMREDDRVAIHEAMEQQTISIAKAGITTTLNSRCSVLAAANSVFGRWDETKGEDNIDFMPTILSRFDMIFIVKDEHNEERDMMLAKHVMTLHVSALTQTQAVEGEIDLAKMKKFIAYCRARCGPRLSAEAAEKLKNRYIIMRSGARQHERDSDRRSSIPITVRQLEAIVRIAEALSKMKLQPFATEADVEEALRLFQVSTLDAALSGNLSGVEGFTTQEDQEMLSRIEKQLKRRFAIGSQVSEHSIVQDFTKQKYPEHAIRKVLQLMLRRGEIQHRMQRKVLYRLK | binds
MCMBP (protein, UniProt Q8R3C0 1-642) MPCGEDWLSHPLGIVQGFFAQNGVNPDWEKKVIEYFKEKLKENNAPKWVPSLNEVPLHYLKPNSFVKFRCMIQDMFDPEFYMGIYETVNQNTKARVLHFGKYRDVAECGPQQELDLSSPRSTTSERQTFYCVPVPGESSWVKEAYVNANQARVSPSTSYTPSRHKRSYEDDEDMDLQPSKQKEQHPGSRQAGGLGGLHWCGEPKRLETEASSGQQLNTLNLSSPFDLNFPLPGEKGPACLVKVYEDWDCFKVNDVLELYGVLSVDPVLSVLNSEERDASALLDPMECTDMAEEQRVHSPPASLVPRIHVILAQKLQHINPLLPTCLNKEESRSCQFVSNFMSELSPVRAELLGFLTHALLGDSLAAEYLILHLISTVYTRRDVLPLGKFTVNLSGCPQNSTFTEHLYRIIQHLVPASFRLQMTIENMNQLKLIPHKDYTANRLVSGLLQLPNNTSLVIDETLLEQGQLDTPGVHNVTALSNLITWQKVDYDFSYHQMEFPCNINVLITSEGRSLLPADCQIHLQPQLIPPNMEEYMNGLLSAVLPSVLNKFRIYLTLLRFLDYNLSDDITKAVEDDFVEMRKDDPQSITADDLHQLLVVARFLSLSVGQTTLSRERWLRAKQLELSRKARLQQQKSVNGNEL | binds

Further lines, results first:

binding | Molecule
binds | BCOR (from UniProt Q8CGN4 1-1759)
binds | BCORL1 (from UniProt A2AQH4 1-1781)
binds | DNMT1 (from UniProt P13864 1-1620)
binds | USP11 (from UniProt Q99K46 1-921)
binds | GMPS (from UniProt Q3THK7 1-693)
binds | L3MBTL2 (from UniProt P59178 1-703)
binds | UHRF1 (protein, UniProt Q8VDF2 1-782) MWIQVRTMDGKETHTVNSLSRLTKVQELRKKIEEVFHVEPQLQRLFYRGKQMEDGHTLFDYDVRLNDTIQLLVRQSLALPLSTKERDSELSDSDSGYGVGHSESDKSSTHGEGAAEADDKTVWEDTDLGLYKVNEYVDVRDNIFGAWFEAQVVQVQKRALSEDEPCSSSAVKTSEDDIMYHVKYDDYPEHGVDIVKAKNVRARARTVIPWENLEVGQVVMANYNVDYPRKRGFWYDVEICRKRQTRTARELYGNIRLLNDSQLNNCRIMFVDEVLMIELPKERRPLIASPSQPPPALRNTGKSGPSCRFCKDDENKPCRKCACHVCGGREAPEKQLLCDECDMAFHLYCLKPPLTSVPPEPEWYCPSCRTDSSEVVQAGEKLKESKKKAKMASATSSSRRDWGKGMACVGRTTECTIVPANHFGPIPGVPVGTMWRFRVQVSESGVHRPHVAGIHGRSNDGAYSLVLAGGYEDDVDNGNYFTYTGSGGRDLSGNKRTAGQSSDQKLTNNNRALALNCHSPINEKGAEAEDWRQGKPVRVVRNMKGGKHSKYAPAEGNRYDGIYKVVKYWPERGKSGFLVWRYLLRRDDTEPEPWTREGKDRTRQLGLTMQYPEGYLEALANKEKSRKRPAKALEQGPSSSKTGKSKQKSTGPTLSSPRASKKSKLEPYTLSEQQANLIKEDKGNAKLWDDVLTSLQDGPYQIFLSKVKEAFQCICCQELVFRPVTTVCQHNVCKDCLDRSFRAQVFSCPACRFELDHSSPTRVNQPLQTILNQLFPGYGSGR
binds | TRIM27 (protein, UniProt Q62158 1-513) MASGSVAECLQQETTCPVCLQYFVEPMMLDCGHNICCACLARCWGAAETNVSCPQCRETFPQRHMRPNRHLANVTQLVKQLRTERPSGPGGEMGVCEKHREPLKLYCEQDQMPICVVCDRSREHRGHSVLPLEEAVEGFKEQIQNRLDHLRRVKDLKKRRRAQGEQARAELLSLTQMEREKIVWEFEQLYHSLKEHEYRLLARLEELDLAIYNSINGAITQFSCNISHLSGLIAQLEEKQQQPTRELLQDIGDTLSRAERIRIPEPWITPPDLQEKIHIFAQKCLFLTESLKQFTEKMQSDMEKIQELREAQLYSVDVTLDPDTAYPSLILSDNLRQVRYSYLQQDLPDNPERFNLFPCVLGSPCFIAGRHYWEVEVGDKAKWTIGVCEDSVCRKGGVTSAPQNGFWAVSLWYGKEYWALTSPMTALPLRTPLQRVGIFLDYDAGEVSFYNVTERCHTFTFSHATFCGPVRPYFSLSYSGGKSAAPLIICPMSGIDGFSGHVGNHGHSMETSP
binds | PPM1G (protein, UniProt Q61074 1-542) MGAYLSQPNTVKCSGDGVGAPRLPLPYGFSAMQGWRVSMEDAHNCIPELDNETAMFSVYDGHGGEEVALYCAKYLPDIIKDQKAYKEGKLQKALQDAFLAIDAKLTTEEVIKELAQIAGRPTEDEDDKDKVADEDDVDNEEAALLHEEATMTIEELLTRYGQNCQKVPPHTKSGIGTGDEPGPQGLNGEAGPEDPSRETPSQENGPTAKGHTGFSSNSEHGTEAGQISEPGTATGEAGPSCSSASDKLPRVAKSKFFEDSEDESDEVEEEEDDSEECSEDEDGYSSEEAENEEDEDDTEEAEEDDDEEMMVPGMEGKEEPGSDSGTTAVVALIRGKQLIVANAGDSRCVVSEAGKALDMSYDHKPEDEVELARIKNAGGKVTMDGRVNGGLNLSRAIGDHFYKRNKNLPPQEQMISALPDIKVLTLTDDHEFMVIACDGIWNVMSSQEVVDFIQSKISQRDENGELRLLSSIVEELLDQCLAPDTSGDGTGCDNMTCIIICFKPRNTVELQAESGKRKLEEALSTEGAEDTGNSDKKKAKRD
binds | MCM3 (protein, UniProt P25206 1-812) MAGTVVLDDVELREAQRDYLDFLDDEEDQGIYQNKVRELISDNQYRLIVSVNDLRRKNEKRANRLLNNAFEELVAFQRALKDFVASIDATYAKQYEEFYIGLEGSFGSKHVSPRTLTSCFLSCVVCVEGIVTKCSLVRPKVVRSVHYCPATKKTIERRYSDLTTLVAFPSSSVYPTKDEENNPLETEYGLSVYKDHQTITIQEMPEKAPAGQLPRSVDVILDDDLVDKVKPGDRIQVVGTYRCLPGKKGCYTSGTFRTVLIACNVKQMSKDIQPAFSADDIAKIKKFSKTRSKDVFEQLARSLAPSIHGHDYVKKAILCLLLGGVERELENGSHIRGDINILLIGDPSVAKSQLLRYVLCTAPRAIPTTGRGSSGVGLTAAVTTDQETGERRLEAGAMVLADRGVVCIDEFDKMSDMDRTAIHEVMEQGRVTIAKAGIHARLNARCSVLAAANPVYGRYDQYKTPMENIGLQDSLLSRFDLLFIMLDQMDPEQDREISDHVLRMHQYRAPGEQDGDALPLGSSVDILATDDPDFTQDDQQDTRIYEKHDSLLHGTKKKKEKMVSAAFMKKYIHVAKIIKPTLTQESAAYIAEEYSRLRSQDSMSSDTARTSPVTARTLETLIRLATAHAKARMSKTVDLQDAEEAVELVQYAYFKKVLEKEKKRKKASEDESDLEDEEEKSQEDTEQKRKRRKTHAKDGESYDPYDFSEAETQMPQVHTPKTDDSQEKTDDSQETQDSQKVELSEPRLKAFKAALLEVFQEAHEQSVGMLHLTESINRNREEPFSSEEIQACLSRMQDDNQVMVSEGIVFLI
binds | MCM6 (protein, UniProt P97311 1-821) MDLAAAAEPGAGSQHPEVRDEVAEKCQKLFLDFLEEFQGSDGEIKYLQFAEELIRPERNTLVVSFADLEQFNQQLSTTIQEEFYRVYPYLCRALKTFVKDRKEIPFAKDFYVAFQDLPTRHKIRELTSSRIGLLTRISGQVVRTHPVHPELVSGTFLCLDCQTVIKDVEQQFKYTQPNICRNPVCANRKRFLLDTNKSRFVDFQKVRIQETQAELPRGSIPRSLEVILRAEAVESAQAGDRCDFTGALIVVPDVSKLSTPGARAETNSRVSGADGYETEGIRGLRALGVRDLSYRLVFLACHVAPTNPRFGGKELRDEEQTAESIKNQMTVKEWEKVFEMSQDKNLYHNLCTSLFPTIHGNDEVKRGVLLMLFGGVPKTTGEGTSLRGDINVCIVGDPSTAKSQFLKHVDEFSPRAVYTSGKASSAAGLTAAVVRDEESHEFVIEAGALMLADNGVCCIDEFDKMDMRDQVAIHEAMEQQTISITKAGVKATLNARTSILAAANPVSGHYDRSKSLKQNINLSAPIMSRFDLFFILVDECNEVTDYAIARRIVDLHSRIEESIDRVYSLDDIRRYLLFARQFKPKISKESEDFIVEQYKRLRQRDGSGVTKSSWRITVRQLESMIRLSESMARMHCCDEVQPKHVKEAFRLLNKSIIRVETPDVNLDQEEEIQMETDEGQGGVNGHADSPAPVNRFNGSSEDASQETVSKPSLRLGFAEYCRISNLIVLHLRKMEEEEDESALKRSELVNWYLKEIESEIDSEEELINKKTIIEKVVHRLTHYDHVLIELTQAGLKGSSEGSESYEEDPYLVVNPNYLLED
